Some of the results follow.
These targets were tested with Cc1ccc(NC(=O)c2ccc(CN3CC[C@H](N(C)C)C3)c(C(F)(F)F)c2)cc1Nc1nccc(-c2cncnc2)n1 [bafetinib] (assay: log2 fold change, soluble protein after heating vs DMSO (PISA); higher = thermal stabilisation; K562 cells, 10 uM, 30 min; active = over 0.2 and 3.5 SD of the protein, either way, in both replicates (recomputed)).
Summary of the method: (§1)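 Soluble protein was quantified by TMTpro 16plex LC-MS/MS after channel sums were equalised. It was obtained as the supernatant after 21,000xg for 90 min from pooled aliquots of K562 cells (2×10^6 cells/mL, 10 μM compound, 30 min) heated for 3 min across 48°C-58°C and extracted in PBS with 0.5% NP-40 at 4°C. Thermal stability values are relative to control samples and come from duplicates. They are given as log2 fold changes.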

Protein sequences, listed by entry. Tags and fused reporters are not part of them. Lines headed by an entry give the natural chain unless they say otherwise; changes in a name come on top.
UniProt P51991: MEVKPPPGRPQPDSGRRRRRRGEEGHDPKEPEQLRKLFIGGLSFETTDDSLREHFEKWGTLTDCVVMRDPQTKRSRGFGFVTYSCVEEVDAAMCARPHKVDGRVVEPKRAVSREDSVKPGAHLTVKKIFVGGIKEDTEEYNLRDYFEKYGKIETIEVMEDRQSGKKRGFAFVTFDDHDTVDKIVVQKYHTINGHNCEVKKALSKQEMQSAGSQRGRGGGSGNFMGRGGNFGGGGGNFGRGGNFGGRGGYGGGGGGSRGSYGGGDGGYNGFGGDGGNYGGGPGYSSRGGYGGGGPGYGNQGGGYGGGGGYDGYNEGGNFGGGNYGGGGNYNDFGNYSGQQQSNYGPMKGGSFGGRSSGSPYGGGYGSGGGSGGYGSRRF
UniProt O15347: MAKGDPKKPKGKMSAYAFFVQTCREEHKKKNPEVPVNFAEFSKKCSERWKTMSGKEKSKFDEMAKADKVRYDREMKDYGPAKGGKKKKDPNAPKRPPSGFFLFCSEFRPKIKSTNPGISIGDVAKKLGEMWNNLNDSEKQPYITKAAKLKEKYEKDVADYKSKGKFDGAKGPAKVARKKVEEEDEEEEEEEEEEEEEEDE
UniProt O43719: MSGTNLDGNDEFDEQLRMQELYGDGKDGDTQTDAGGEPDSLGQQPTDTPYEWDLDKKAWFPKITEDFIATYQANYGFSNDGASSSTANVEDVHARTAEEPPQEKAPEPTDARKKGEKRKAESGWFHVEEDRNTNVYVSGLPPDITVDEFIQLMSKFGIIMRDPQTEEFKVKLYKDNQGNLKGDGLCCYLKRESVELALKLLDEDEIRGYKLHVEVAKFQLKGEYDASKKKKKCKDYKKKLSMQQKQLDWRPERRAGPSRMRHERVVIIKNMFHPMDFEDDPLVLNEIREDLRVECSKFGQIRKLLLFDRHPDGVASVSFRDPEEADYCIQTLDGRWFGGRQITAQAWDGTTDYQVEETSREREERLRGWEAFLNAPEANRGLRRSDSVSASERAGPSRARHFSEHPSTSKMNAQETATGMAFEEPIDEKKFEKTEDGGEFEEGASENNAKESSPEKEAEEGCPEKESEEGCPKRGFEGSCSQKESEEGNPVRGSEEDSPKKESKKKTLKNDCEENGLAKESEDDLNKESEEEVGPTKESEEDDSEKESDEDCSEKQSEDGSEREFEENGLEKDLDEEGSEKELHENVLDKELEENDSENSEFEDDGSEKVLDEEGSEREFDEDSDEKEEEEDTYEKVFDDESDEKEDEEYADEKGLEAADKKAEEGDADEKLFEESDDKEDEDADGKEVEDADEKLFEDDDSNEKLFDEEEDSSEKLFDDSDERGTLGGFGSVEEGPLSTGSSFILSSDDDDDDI
UniProt Q9BTY7: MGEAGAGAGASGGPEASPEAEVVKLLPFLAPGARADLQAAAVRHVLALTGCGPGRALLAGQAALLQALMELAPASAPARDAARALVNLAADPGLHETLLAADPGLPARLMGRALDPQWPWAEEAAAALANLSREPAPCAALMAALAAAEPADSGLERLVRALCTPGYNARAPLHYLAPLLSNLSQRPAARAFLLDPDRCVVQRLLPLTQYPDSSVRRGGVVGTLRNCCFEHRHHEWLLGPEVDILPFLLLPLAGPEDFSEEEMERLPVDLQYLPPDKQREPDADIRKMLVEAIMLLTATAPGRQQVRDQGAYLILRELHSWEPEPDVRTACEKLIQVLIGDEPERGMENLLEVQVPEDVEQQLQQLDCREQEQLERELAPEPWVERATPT
UniProt Q9BW71: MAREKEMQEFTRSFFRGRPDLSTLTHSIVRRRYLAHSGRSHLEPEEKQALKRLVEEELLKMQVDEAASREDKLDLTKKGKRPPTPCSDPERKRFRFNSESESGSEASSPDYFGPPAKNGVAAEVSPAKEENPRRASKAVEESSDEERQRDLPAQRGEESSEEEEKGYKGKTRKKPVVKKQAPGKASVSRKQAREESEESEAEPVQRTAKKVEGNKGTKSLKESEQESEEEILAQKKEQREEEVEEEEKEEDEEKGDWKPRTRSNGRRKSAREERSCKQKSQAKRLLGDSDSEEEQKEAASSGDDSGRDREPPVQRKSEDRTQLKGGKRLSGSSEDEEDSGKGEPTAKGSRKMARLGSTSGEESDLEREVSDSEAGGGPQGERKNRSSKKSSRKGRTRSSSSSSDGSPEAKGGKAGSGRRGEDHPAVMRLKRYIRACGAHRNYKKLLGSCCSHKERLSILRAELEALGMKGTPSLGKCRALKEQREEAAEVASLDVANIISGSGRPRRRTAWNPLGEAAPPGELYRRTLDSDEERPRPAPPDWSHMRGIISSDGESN
UniProt O14979: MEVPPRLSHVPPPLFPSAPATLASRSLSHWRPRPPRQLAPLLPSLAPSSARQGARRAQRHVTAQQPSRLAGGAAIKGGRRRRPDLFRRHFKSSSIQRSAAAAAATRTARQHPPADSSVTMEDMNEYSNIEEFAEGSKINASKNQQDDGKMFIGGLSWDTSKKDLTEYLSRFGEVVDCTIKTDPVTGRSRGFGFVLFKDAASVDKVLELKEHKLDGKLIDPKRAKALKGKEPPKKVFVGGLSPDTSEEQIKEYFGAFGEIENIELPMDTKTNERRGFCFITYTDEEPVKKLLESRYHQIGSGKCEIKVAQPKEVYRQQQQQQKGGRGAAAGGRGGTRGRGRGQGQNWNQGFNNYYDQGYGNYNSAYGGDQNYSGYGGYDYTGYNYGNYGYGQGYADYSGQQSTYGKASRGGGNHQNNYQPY
UniProt Q00839, whole entry, looked up: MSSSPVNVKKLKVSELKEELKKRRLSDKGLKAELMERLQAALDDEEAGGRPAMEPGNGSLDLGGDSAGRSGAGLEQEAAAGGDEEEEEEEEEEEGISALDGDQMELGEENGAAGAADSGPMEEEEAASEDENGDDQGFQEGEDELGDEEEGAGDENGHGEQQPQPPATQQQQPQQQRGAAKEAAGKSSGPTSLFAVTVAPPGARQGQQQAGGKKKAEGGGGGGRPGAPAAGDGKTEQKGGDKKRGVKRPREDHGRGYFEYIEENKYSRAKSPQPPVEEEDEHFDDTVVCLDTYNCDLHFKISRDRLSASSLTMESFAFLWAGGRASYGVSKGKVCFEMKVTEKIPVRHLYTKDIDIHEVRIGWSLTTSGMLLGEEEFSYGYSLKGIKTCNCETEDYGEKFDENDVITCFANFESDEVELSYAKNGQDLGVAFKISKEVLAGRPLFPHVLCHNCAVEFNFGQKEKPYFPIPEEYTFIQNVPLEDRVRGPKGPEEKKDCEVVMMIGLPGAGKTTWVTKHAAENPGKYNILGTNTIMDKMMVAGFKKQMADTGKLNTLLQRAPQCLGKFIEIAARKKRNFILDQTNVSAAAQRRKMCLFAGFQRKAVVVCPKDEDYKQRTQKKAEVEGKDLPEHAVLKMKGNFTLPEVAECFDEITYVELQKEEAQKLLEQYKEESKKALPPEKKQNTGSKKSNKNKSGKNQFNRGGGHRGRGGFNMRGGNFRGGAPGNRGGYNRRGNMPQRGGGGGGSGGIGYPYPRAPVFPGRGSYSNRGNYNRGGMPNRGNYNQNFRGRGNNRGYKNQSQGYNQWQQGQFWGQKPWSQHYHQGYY
UniProt P48723: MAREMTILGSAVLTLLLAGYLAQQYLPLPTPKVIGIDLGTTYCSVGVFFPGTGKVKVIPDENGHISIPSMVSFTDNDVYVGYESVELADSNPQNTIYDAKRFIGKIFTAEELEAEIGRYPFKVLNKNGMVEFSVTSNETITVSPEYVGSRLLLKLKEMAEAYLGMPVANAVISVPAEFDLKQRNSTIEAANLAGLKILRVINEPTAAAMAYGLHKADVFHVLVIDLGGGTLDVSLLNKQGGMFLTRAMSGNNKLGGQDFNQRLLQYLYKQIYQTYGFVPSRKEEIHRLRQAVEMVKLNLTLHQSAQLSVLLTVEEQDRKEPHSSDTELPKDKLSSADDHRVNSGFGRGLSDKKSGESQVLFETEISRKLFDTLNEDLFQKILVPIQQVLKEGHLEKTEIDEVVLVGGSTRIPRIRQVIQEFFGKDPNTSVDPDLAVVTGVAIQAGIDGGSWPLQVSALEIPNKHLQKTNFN
UniProt O43390: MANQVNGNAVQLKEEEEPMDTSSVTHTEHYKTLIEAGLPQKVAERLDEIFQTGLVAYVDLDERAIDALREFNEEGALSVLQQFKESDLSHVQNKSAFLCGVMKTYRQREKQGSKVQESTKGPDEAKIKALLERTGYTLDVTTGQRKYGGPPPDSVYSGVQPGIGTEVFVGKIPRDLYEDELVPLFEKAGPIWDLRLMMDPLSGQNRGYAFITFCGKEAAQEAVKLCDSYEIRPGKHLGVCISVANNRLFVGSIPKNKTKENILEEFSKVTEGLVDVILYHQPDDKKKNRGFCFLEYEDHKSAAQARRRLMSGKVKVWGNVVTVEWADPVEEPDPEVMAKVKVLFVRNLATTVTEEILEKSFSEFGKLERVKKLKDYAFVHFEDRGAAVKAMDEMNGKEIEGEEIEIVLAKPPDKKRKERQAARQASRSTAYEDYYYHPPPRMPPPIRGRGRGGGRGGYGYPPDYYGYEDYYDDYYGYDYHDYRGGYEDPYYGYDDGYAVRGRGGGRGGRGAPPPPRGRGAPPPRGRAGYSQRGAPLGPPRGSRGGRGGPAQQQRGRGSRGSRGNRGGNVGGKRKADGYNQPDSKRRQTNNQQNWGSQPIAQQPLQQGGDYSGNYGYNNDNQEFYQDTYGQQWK
UniProt P09651: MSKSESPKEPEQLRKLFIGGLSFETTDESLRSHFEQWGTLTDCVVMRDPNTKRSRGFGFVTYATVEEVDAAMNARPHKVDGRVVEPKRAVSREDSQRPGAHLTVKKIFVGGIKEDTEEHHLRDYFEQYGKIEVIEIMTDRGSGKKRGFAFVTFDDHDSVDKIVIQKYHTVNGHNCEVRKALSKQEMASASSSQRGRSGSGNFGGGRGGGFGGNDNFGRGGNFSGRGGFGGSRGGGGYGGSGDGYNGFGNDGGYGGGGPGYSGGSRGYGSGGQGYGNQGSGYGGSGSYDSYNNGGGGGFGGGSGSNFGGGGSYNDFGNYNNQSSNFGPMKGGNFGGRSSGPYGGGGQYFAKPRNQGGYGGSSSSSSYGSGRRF
UniProt P11021: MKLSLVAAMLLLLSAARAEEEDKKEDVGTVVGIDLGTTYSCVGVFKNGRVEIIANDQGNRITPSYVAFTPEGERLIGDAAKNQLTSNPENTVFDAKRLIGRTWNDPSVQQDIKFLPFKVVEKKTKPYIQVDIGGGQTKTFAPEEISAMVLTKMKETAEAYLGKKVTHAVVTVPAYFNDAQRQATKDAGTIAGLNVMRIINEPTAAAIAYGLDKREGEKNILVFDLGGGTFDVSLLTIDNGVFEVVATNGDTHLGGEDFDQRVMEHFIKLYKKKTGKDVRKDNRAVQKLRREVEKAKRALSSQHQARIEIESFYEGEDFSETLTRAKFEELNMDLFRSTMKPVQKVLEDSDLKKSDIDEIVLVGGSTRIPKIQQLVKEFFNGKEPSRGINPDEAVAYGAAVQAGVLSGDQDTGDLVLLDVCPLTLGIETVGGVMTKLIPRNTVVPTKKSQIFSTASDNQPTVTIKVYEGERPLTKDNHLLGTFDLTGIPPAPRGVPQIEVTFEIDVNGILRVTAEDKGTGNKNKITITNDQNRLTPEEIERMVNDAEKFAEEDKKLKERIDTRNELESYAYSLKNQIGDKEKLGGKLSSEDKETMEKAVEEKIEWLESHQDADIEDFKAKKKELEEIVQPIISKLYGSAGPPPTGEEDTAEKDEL
UniProt P04792, whole entry, looked up: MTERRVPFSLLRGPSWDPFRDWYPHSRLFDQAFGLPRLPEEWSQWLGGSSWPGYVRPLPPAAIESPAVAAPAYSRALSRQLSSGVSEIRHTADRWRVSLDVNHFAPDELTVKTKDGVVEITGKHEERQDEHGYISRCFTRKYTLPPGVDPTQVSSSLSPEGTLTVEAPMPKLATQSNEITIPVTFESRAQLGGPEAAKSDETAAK
UniProt P31942: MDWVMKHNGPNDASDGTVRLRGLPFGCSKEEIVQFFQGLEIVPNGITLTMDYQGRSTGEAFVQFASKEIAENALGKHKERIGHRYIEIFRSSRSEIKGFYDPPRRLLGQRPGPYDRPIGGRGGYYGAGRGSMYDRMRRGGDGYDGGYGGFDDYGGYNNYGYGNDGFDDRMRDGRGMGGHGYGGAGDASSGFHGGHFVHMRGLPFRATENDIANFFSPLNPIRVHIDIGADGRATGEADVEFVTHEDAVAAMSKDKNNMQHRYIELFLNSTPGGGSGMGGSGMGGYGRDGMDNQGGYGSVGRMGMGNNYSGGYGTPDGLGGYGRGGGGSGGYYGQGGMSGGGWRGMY
UniProt Q14103: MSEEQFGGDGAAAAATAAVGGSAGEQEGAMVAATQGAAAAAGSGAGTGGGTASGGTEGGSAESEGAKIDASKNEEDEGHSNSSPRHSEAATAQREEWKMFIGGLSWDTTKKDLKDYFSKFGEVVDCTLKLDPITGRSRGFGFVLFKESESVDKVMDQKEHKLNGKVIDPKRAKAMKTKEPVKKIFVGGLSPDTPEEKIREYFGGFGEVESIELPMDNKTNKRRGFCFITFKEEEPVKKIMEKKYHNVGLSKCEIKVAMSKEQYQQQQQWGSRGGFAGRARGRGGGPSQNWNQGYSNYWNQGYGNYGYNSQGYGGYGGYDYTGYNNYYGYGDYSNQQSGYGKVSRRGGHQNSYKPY

log2 fold change, inactive:
HNRNPA3 (UniProt P51991) 0.122
HMGB3 (UniProt O15347) -0.057
HTATSF1 (UniProt O43719) 0.024
HGH1 (UniProt Q9BTY7) 0.043
HIRIP3 (UniProt Q9BW71) -0.084
HYPK (UniProt Q9NX55) 0.014
HNRNPDL (UniProt O14979) 0.02
HSPBP1 isoform 3 (UniProt Q9NZL4) -0.023
HKDC1 (UniProt Q2TB90) -0.11
HNRNPUL1 (UniProt Q9BUJ2) -0.011

What follows are targets tested with Cc1cccc(CC(=O)N2CCc3c2ccc(-c2cn(C)c4ncnc(N)c24)c3F)n1 in the same assay as above.
Summary of the method: as §1

log2 fold change, inactive:
HNRNPK isoform 2 (UniProt P61978) 0.007
HNRNPU (UniProt Q00839) 0.012
HSPA13 (UniProt P48723) 0.037
HNRNPR isoform 2 (UniProt O43390) -0.037
HIST2H3A (UniProt Q71DI3) -0.183
HIBCH (UniProt Q6NVY1) -0.008
HNRNPA1 (UniProt P09651) 0.01
HMOX2 (UniProt P30519) 0.048
HOOK3 (UniProt Q86VS8) 0.029
HIBADH (UniProt P31937) -0.031
HMGN4 (UniProt O00479) 0.135
HIC2 (UniProt Q96JB3) 0.006
HMGCS1 (UniProt Q01581) -0.042
HLTF (UniProt Q14527) 0.017
HSPA1L (UniProt P34931) 0.02
HSPA5 (UniProt P11021) -0.032
HSPA9 (UniProt P38646) 0
HTRA2 (UniProt O43464) -0.036
HMGA1 (UniProt P17096) -0.126
HSPB1 (UniProt P04792) -0.003
HINT2 (UniProt Q9BX68) -0.061
HNRNPH3 (UniProt P31942) -0.081
HNRNPD (UniProt Q14103) -0.081
HNRNPA3 (UniProt P51991) 0.009
HMGB3 (UniProt O15347) -0.009
HTATSF1 (UniProt O43719) -0.012
HGH1 (UniProt Q9BTY7) 0.038
HIRIP3 (UniProt Q9BW71) 0.013
HYPK (UniProt Q9NX55) -0.009
HNRNPDL (UniProt O14979) -0.04
HSPBP1 isoform 3 (UniProt Q9NZL4) -0.009
HKDC1 (UniProt Q2TB90) 0.019
HNRNPUL1 (UniProt Q9BUJ2) -0.069
